Assay results taken from US20080221132A1, “Multi-Functional Small Molecules as Anti-Proliferative Agents” (priority 2006, published 2008).

Key:
Format in all cases: cell-based
[1] = system: Breast_SkBr3 (SKBr3, breast carcinoma); assay: Cell proliferation assay (ATPlite), SkBr3; conditions: Homo sapiens, SK-BR-3, TABLE D, read-out: IC50 grading, SKBr3
Description: (§1) A representative number of compounds were assayed against several different cell lines using the cell proliferation assay:
(§2) Cell Proliferation Assay:
(§3) Cancer cell lines were plated at 5,000 to 10,000 per well in 96-well flatted bottomed plates with various concentration of compounds. The cells were incubated with compounds for 72 hours in the presence of 0.5% of fetal bovine serum. Growth inhibition was accessed by adenosine triphosphate (ATP) content assay using Perkin Elmer ATPlite kit. ATPlite is an ATP monitoring system based on firefly luciferase. Briefly, 25 μl of mammalian cell lysis solution was added to 50 μl of phenol red-free culture medium per well to lyse the cells and stabilize the ATP. 25 μl of substrate solution was then added to the well and subsequently the luminescence was measured.

[2] = system: Epidermoid_A431 (A431, epidermoid carcinoma); assay: Cell proliferation assay (ATPlite), A431; conditions: Homo sapiens, A-431, TABLE D, read-out: IC50 grading, A431
Description: as §1, §2, §3

[3] = system: Prostate_22RV1 (22RV1, prostate carcinoma); assay: Cell proliferation assay (ATPlite), 22RV1; conditions: Homo sapiens, TABLE D, read-out: IC50 grading, 22RV1
Description: as §1, §2, §3

Caki-1 (renal carcinoma) = assay: Cell proliferation assay (ATPlite), Caki-1; conditions: Homo sapiens, TABLE D, read-out: IC50 grading, Caki-1
Description: as §1, §2, §3

[4] = system: MDA-MB-231 (breast adenocarcinoma); assay: Cell proliferation assay (ATPlite), MDA-MB-231; conditions: Homo sapiens, TABLE D, read-out: IC50 grading, MDA-MB-231
Description: as §1, §2, §3

[5] = system: Prostate_PC3 (PC-3, prostate adenocarcinoma); assay: Cell proliferation assay (ATPlite), PC3; conditions: TABLE D, read-out: IC50 grading, PC-3
Description: as §1, §2, §3

[6] = system: Colon_HCT116 (HCT116, colon cancer); assay: Cell proliferation assay (ATPlite), HCT116; conditions: Homo sapiens, HCT-116, TABLE D, read-out: IC50 grading, HCT116
Description: as §1, §2, §3

[7] = system: Breast_MDAMB468 (MDA-MB-468, breast adenocarcinoma); assay: Cell proliferation assay (ATPlite), MDA-MB-468; conditions: Homo sapiens, TABLE D, read-out: IC50 grading, MDA-MB-468
Description: as §1, §2, §3

[8] = system: Breast_MCF7 (MCF-7, breast adenocarcinoma); assay: Cell proliferation assay (ATPlite), MCF7; conditions: Homo sapiens, TABLE D, read-out: IC50 grading, MCF-7
Description: as §1, §2, §3

For `O=C(CCCCCCC(=O)Nc1ccccc1)NO` [SAHA, Suberoylanilide hydroxamic acid, reference compound], the IC50 [1] was 500 to 5000 nM, the IC50 [2] was 500 to 5000 nM and the IC50 [3] was 50 to 500 nM. For the same molecule, the IC50 (Caki-1 (renal carcinoma)) was 50 to 500 nM, the IC50 [4] was 50 to 500 nM and the IC50 [5] was 500 to 5000 nM. It also gave an IC50 [6] of 500 to 5000 nM, an IC50 [7] of 500 to 5000 nM and an IC50 [8] of 500 to 5000 nM.
